According to patent US12590963B2, “Anti-cancer treatment of preselected subjects and screening methods to identify susceptible subjects” (TUDAG TU Dresden Aktiengesellschaft, priority 2018, dated 2026):
The name of at least one read-out is uncertain.

System: U-87 cells
Assay: Drug screening of FDA-approved compound library, cell viability by ATP levels (ATPLite)
Assay type: cell-based, human
Settings: only one score printed, concentration not given, FGFJI medium
Method: A library of 1,600 FDA-approved compounds was screened on U-87 cells cultured in the improved conditions. Each drug was screened at both 3 micromolar and 10 micromolar concentrations. Cell viability was assessed by measuring ATP levels.
Drugs that opposed cell viability were further investigated. These drugs were re-screened under the more common cell culture conditions (in serum-supplemented RMPI medium, where cells are more differentiated). Some drugs were identified that also opposed growth under the more differentiated conditions. We also identified some drugs that only opposed growth in the improved conditions. It was focused on the latter drugs only as being the target compounds of the present invention.
White Corning 384 well plates (Cat #3570) were coated with 40 ul of […] polyornithine (Sigma, #P-365) at 370C overnight. The next day the plates were washed 5 times with water using a BioTek EL 406 plate washer. The plates were then coated with 40 ul of 1 mg/ml fibronectin (R&D Systems, #1030-Fn) for 2 hours at 370C and then washed 2 times with PBS. Either 15nl or 50nl of either 10 mM library compounds (MicroSource Pharmakon library) or 100% DMSO as negative control or 1 mM Staurosporine (ACROS #328532500) were dispensed with a Labcyte Echo 550 to screen the library at 3u M and 10 μM respectively. […]

Structure (SMILES) | ATP assay score (3 μM, 10 μM)
O=c1c2ccccc2[se]n1-c1ccccc1 [EBSELEN, 2-phenyl-1,2-benzoselenazol-3-one] | −9
CCC(=O)NCC[C@@H]1CCc2ccc3c(c21)CCO3 [RAMELTEON, N-[2-[(8S)-2,6,7,8-tetrahydro-1H-cyclopenta[e][1]benzofuran-8-yl]ethyl]propanamide] | −5
